# No constants are given. Whether binding was seen depends on the method and setting. Binding seen in cells or lysates may run through a third protein. Binding can be weak; no strength is given.
# The chains behind the UniProt entries cited, without tags or fusion partners. Where a name states a change or a piece, a line headed by the entry shows the natural chain unless it says otherwise.
# UniProt Q9Y5K6: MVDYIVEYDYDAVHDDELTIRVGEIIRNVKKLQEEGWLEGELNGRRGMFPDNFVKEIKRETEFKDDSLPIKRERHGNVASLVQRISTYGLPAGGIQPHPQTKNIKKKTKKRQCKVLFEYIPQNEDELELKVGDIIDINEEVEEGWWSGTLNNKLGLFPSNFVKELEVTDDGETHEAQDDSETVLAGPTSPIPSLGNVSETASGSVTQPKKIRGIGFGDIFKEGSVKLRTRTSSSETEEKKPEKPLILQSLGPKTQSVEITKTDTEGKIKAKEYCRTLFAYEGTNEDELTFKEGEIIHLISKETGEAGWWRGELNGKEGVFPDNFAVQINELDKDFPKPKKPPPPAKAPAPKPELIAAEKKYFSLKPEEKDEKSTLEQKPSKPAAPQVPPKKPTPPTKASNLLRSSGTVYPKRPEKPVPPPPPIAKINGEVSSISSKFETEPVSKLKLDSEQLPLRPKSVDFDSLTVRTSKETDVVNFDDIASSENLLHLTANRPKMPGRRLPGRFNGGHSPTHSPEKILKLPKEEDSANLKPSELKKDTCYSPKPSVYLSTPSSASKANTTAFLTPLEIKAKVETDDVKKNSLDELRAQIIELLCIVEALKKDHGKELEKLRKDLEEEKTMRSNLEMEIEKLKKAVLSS
# UniProt A6ND36: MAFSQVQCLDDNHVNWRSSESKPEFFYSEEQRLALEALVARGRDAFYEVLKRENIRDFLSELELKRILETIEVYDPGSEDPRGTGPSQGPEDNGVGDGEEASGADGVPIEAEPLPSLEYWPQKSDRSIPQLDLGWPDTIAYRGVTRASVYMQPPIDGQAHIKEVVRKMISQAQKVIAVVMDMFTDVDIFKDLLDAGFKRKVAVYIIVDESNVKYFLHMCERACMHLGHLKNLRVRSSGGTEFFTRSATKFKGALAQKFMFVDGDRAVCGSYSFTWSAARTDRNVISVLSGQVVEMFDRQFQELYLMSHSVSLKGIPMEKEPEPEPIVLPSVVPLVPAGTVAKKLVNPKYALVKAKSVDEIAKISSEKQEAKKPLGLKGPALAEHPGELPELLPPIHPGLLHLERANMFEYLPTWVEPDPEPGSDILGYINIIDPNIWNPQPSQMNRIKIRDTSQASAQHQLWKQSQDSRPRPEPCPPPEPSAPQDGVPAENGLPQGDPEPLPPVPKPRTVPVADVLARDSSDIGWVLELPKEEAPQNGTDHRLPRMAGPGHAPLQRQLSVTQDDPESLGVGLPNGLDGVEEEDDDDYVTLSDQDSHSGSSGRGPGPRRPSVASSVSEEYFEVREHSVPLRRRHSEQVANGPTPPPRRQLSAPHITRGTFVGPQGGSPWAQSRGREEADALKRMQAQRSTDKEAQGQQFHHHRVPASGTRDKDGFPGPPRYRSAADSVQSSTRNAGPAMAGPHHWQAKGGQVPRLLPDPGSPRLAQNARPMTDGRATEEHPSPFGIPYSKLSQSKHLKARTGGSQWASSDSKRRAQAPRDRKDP
# Target: full length GFP-CD2AP (PAWS1-/- U2OS, Figure 4E) (not stated (CD2AP and xCD2AP plasmids listed)) (UniProt Q9Y5K6)
# Assay: co-IP
substance,measurement,value
Myc-PAWS1 DUF1669 domain (1-294) (from UniProt A6ND36) (domain or fragment),binding,binds

# Reference: paper doi:10.1101/106971
